Experimental findings from paper PMC4510711 are described below.

Protein sequences, listed by entry. Tags and fused reporters are not part of them.
UniProt A5YKK6: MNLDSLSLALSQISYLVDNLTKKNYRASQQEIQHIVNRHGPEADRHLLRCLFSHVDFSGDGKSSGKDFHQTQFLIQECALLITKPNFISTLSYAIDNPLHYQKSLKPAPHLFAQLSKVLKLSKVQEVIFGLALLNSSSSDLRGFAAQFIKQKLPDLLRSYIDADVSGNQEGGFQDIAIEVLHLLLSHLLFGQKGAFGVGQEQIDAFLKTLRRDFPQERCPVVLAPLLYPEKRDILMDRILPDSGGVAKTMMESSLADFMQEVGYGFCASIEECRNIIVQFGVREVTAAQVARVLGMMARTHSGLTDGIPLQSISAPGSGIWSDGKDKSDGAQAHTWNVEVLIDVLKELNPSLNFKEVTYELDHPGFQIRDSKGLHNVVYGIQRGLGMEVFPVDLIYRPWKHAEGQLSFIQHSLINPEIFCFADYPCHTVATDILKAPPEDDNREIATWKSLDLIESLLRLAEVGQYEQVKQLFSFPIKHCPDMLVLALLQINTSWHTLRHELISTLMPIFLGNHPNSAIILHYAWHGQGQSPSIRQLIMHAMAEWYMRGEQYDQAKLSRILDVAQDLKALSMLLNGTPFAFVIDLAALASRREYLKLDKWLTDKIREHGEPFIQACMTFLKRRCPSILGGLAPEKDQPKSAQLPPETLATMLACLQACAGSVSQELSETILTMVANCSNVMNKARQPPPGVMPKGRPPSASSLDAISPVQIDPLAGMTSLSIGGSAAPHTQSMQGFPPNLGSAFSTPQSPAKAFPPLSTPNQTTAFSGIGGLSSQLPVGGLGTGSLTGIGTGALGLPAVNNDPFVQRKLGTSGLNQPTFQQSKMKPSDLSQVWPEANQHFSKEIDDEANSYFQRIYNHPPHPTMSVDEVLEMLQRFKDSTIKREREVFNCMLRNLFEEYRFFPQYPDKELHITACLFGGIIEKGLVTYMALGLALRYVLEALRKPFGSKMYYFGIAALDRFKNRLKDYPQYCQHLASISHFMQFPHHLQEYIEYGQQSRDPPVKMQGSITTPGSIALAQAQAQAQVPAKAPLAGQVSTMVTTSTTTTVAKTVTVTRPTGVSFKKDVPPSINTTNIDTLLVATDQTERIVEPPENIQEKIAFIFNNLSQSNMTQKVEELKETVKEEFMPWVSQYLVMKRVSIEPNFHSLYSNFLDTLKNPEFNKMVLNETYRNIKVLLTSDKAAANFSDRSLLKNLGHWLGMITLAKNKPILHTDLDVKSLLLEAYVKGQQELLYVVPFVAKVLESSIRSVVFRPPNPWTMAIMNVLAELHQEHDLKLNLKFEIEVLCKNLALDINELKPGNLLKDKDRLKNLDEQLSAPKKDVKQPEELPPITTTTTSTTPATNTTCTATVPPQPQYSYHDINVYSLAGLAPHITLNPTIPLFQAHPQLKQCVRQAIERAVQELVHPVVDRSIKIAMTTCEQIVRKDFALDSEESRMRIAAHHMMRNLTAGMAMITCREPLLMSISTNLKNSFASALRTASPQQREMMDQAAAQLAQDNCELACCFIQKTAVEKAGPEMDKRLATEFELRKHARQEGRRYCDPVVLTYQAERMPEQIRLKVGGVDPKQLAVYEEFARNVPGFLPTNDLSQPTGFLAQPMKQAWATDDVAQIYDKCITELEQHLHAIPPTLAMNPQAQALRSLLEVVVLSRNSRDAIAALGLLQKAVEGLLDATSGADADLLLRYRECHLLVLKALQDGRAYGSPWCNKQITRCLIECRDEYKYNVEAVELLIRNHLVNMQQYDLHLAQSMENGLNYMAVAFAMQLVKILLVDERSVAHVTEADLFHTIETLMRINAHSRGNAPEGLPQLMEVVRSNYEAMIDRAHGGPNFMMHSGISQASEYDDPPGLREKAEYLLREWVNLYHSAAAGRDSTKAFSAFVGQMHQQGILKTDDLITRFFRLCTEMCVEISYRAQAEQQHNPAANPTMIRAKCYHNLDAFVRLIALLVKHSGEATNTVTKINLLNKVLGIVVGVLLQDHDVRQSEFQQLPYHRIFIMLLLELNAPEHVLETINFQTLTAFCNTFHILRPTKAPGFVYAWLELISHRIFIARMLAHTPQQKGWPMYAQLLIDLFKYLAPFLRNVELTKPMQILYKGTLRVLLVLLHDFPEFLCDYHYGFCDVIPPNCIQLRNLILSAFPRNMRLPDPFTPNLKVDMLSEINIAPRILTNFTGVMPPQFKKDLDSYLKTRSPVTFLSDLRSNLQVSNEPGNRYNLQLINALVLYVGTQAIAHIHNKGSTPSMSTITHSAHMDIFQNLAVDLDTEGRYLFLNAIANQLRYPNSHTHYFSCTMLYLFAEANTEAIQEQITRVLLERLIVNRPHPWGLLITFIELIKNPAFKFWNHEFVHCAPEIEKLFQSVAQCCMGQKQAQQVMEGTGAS
UniProt Q9UFF9: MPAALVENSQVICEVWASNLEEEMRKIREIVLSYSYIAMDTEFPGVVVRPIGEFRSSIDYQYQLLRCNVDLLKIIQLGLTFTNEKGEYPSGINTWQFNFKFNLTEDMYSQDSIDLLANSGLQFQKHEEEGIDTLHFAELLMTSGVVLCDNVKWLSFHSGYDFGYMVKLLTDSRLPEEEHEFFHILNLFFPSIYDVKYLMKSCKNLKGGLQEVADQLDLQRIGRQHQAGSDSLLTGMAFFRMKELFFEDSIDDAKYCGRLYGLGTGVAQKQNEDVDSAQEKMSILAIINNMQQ

These are yes or no findings as the source states them, for the method shown. Binding seen in cells or lysates may run through a third protein. Some entries that bind do so weakly or less than the wild type. Where a sequence is shown, tags or fusion partners need not be part of it.

This test deals with T1, myc-RC3H1 (human) (UniProt Q5TC82).
T1 sequence: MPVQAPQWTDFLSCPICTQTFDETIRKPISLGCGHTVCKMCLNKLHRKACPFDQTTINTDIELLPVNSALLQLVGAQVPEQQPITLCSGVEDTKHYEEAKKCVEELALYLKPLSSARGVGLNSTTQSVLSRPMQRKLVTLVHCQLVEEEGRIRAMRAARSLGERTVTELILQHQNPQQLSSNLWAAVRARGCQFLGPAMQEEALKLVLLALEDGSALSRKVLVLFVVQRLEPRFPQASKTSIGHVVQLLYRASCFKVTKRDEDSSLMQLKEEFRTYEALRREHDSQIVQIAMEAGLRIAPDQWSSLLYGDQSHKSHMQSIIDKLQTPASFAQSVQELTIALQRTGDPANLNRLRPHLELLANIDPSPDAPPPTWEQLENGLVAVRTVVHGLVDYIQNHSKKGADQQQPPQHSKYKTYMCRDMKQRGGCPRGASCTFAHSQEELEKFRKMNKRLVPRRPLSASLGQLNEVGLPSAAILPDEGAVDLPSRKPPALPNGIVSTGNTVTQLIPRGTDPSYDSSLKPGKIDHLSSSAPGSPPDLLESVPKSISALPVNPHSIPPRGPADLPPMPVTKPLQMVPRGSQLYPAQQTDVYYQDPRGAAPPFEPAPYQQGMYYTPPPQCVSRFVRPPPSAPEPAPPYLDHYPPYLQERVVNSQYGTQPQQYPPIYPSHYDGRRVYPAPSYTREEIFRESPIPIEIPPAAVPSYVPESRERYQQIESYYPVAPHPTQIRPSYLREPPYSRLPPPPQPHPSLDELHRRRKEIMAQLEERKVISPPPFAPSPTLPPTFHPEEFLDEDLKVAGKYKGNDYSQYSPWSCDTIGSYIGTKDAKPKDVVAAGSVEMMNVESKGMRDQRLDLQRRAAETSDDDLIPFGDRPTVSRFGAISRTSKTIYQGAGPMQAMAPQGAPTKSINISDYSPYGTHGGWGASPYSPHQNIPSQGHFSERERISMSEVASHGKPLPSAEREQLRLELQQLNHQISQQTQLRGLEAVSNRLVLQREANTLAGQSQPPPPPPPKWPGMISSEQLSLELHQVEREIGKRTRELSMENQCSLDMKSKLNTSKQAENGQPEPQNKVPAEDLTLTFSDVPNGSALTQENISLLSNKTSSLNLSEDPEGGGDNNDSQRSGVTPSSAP
Kind of test: co-IP; co-transfection of myc-RC3H1 with HA-CNOT1, HA-CNOT8 or HA-QKI; IP with anti-myc antibody; blots probed with anti-myc and anti-HA.

Take HA-CNOT1 (from UniProt A5YKK6 1-2376): the binding entry is “binds”.

Take HA-CNOT8 (from UniProt Q9UFF9 1-292): the binding entry was “binds”.

B1: HA-QUAKING (QKI) (protein, UniProt Q96PU8-1 1-341)
chain: MVGEMETKEKPKPTPDYLMQLMNDKKLMSSLPNFCGIFNHLERLLDEEISRVRKDMYNDTLNGSTEKRSAELPDAVGPIVQLQEKLYVPVKEYPDFNFVGRILGPRGLTAKQLEAETGCKIMVRGKGSMRDKKKEEQNRGKPNWEHLNEDLHVLITVEDAQNRAEIKLKRAVEEVKKLLVPAAEGEDSLKKMQLMELAILNGTYRDANIKSPALAFSLAATAQAAPRIITGPAPVLPPAALRTPTPAGPTIMPLIRQIQTAVMPNGTPHPTAAIVPPGPEAGLIYTPYEYPYTLAPATSILEYPIEPSGVLGAVATKVRRHDMRVHPYQRIVTADRAATGN
Regarding B1, the binding entry is reported as “no binding”.
